Experimental findings from patent US20090269840A1 (UCB, published 2009) are described below.

Chains of the proteins cited; added tags and fusions are not shown. Residues count along the entry.
UniProt P35968, residues 20-764: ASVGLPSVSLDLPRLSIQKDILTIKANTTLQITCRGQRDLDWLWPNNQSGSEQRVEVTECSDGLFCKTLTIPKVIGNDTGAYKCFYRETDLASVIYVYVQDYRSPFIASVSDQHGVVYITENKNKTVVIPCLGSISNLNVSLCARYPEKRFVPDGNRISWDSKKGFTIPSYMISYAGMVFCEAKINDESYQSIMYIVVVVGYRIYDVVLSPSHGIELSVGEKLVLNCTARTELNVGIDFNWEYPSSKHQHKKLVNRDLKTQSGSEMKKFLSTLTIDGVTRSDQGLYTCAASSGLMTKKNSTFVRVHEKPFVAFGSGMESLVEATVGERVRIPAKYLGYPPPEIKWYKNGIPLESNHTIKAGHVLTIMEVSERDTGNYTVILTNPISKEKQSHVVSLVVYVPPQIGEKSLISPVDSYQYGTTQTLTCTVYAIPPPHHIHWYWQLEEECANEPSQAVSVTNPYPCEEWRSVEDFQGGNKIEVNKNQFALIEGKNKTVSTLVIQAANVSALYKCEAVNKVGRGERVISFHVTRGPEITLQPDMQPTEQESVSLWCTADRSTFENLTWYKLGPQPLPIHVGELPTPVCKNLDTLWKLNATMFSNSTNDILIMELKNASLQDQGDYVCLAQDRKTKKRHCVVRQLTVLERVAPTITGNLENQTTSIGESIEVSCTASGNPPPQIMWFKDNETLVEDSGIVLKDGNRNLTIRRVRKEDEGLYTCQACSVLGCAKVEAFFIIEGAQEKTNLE

Assay [1] concerns the target KDR (form used in the ELISA, radioimmunoassay and BIAcore of the graft comparison not stated) (UniProt P35968). Briefly: KDR binding ELISA and radioimmunoassay of inhibition of labeled VEGF binding to KDR. In general terms: ELISA stands for enzyme-linked immunosorbent assay.
For assay [2] the target is unchanged. The assay can be described thus: BIAcore assay of KDR binding. For orientation: In SPR one partner is held on a chip, and binding of the other changes the refractive index at the surface.

These are yes or no findings as the source states them, for the method shown. Some results given as binding are weak or reduced against the parent protein; the word gives no strength.

B1: mouse monoclonal antibody VR165 (antibody, mouse IgG2a, V domains shown)
VH: EVQLVESGGDLVKPGGSLKLSCAASGFTFSSYGMSWVRQTPDKRLQWVATITSGGSYTYYPDTVKGRFTISRDNAENTLYLQMSSLKSEDTAMYYCVRIGEDALDYWGQGTSVTVSS
VL: DIQMTQSPSSLSASLGERVSLTCRASQDIAGSLNWLRQEPDGTIKRLIYATSSLDSGVPKRFSGSRSGSDYSLTISSLESEDFVDYYCLQYGSFPPTFGGGSKLEIKR
notes: also called mIgG; murine IgG
For B1, the binding entry in assay [1] is “binds”.

B2: graft gL3gH3 antibody (g165), whole antibody from CHO cells (antibody, V domains shown)
VH: EVQLVESGGGLVQPGGSLRLSCAASGFTFSSYGMSWVRQAPGKGLEWVATITSGGSYTYYVDSVKGRFTISRDNAKNTLYLQMNSLRAEDTAVYYCVRIGEDALDYWGQGTLVTVSS
VL: DIQMTQSPSSLSASVGDRVTITCRASQDIAGSLNWLQQKPGKAIKRLIYATSSLDSGVPKRFSGSRSGSDYTLTISSLQPEDFATYYCLQYGSFPPTFGQGTKVEIKR
For B2, the binding result in assay [2] was “binds”.
